No constants are given. Whether binding was seen depends on the method and setting. In cells and extracts the contact can be indirect. Binding calls can cover weak binding; strength is not graded here.
B1: Inhibitor of differentiation 2 (Id2) (protein, UniProt P41137 1-134)
chain: MKAFSPVRSVRKNSLSDHSLGISRSKTPVDDPMSLLYNMNDCYSKLKELVPSIPQNKKVTKMEILQHVIDYILDLQIALDSHPTIVSLHHQRPGQNQTSRTPLTTLNTDISILSLQASEFPSELMSNDSKVLCG

Key:
[1] = target: T1, Inhibitor of differentiation 2 (Id2) (rat (endogenous in NRK-52E)) (UniProt P41137); assay: co-IP; Dynabeads Protein G with rabbit anti-Id2 or mouse anti-Twist antibody, NRK-52E cell lysate supernatant, room temperature 1 h, Western blot; cells cultured in normal glucose (5.5 mmol/L) or high glucose (30 mmol/L), with or without 0.1 mg/mL oxymatrine
T1 sequence: B1 chain

[2] = target: Twist (rat (endogenous in NRK-52E)); assay: as above

| Molecule | binding [1] | binding [2] |
| --- | --- | --- |
| Twist (rat (endogenous in NRK-52E)) | binds | – |
| B1 | – | binds |

Reference: article PMC7317027
